Experimental findings from publication PMC11442835 are described below.

By UniProt entry, the sequences of proteins in these tests, tags left out.
UniProt O94972: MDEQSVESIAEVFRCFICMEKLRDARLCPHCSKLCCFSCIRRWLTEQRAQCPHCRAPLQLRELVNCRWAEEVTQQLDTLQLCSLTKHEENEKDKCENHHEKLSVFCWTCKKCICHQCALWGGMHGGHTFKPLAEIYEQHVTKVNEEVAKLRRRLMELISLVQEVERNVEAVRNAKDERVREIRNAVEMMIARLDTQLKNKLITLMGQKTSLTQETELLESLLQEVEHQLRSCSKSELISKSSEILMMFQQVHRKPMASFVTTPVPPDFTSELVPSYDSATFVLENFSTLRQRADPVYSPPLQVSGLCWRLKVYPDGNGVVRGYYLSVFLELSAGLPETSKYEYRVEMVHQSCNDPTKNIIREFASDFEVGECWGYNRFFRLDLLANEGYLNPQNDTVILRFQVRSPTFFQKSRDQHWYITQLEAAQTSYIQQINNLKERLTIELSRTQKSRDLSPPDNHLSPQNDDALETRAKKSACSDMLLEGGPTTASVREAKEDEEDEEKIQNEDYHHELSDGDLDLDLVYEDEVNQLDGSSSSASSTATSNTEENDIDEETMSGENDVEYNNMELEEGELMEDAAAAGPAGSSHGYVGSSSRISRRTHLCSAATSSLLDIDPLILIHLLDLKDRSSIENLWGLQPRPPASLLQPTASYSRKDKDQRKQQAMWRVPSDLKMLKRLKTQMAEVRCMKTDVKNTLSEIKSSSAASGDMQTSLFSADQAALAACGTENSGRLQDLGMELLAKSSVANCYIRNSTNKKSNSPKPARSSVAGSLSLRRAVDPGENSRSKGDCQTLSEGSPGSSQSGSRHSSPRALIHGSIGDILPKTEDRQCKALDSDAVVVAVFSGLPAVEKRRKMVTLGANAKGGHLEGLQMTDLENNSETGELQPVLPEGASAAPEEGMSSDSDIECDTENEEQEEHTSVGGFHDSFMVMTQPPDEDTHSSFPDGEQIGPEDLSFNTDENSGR
UniProt Q8TAQ2: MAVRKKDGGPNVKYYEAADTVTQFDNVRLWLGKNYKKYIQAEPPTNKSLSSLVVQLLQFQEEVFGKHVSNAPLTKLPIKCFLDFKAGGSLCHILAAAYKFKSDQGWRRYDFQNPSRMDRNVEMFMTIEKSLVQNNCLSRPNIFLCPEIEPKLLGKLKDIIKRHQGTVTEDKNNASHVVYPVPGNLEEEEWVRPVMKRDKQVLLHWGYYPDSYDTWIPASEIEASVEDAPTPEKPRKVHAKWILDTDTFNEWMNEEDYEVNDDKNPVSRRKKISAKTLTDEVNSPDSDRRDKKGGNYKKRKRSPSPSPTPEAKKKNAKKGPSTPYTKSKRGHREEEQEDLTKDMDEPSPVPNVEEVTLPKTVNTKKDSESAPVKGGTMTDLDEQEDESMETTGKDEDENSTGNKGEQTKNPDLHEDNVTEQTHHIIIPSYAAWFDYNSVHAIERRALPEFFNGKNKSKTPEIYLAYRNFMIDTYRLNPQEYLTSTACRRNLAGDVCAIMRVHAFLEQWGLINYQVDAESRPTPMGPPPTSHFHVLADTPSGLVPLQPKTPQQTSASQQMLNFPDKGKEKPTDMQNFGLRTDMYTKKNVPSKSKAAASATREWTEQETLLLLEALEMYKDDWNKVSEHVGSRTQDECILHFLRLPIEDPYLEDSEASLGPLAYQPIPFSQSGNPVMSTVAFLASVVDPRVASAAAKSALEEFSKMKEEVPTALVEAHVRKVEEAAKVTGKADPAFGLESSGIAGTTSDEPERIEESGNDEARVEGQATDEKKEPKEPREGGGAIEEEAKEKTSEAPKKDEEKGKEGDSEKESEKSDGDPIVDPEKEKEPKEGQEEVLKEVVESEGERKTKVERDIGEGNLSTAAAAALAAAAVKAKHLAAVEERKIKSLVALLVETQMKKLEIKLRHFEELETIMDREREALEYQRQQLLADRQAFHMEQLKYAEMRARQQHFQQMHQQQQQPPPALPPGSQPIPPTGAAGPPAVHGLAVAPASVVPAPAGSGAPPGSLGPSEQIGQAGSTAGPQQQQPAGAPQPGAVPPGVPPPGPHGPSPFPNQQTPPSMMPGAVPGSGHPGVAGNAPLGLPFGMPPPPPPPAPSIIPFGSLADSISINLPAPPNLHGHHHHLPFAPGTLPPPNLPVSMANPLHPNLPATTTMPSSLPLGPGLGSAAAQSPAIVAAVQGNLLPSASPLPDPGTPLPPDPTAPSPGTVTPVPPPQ

These are yes or no findings as the source states them, for the method shown. Binding seen in cells or lysates may run through a third protein. Here binding means that the protein was enriched with, or labelled near, the bait; the list need not be complete.

For the experiment, the target named is Tripartite motif-containing 37 (TRIM37) (human (RCC cell lines; the cell line of the Co-IP is not stated)) (UniProt O94972). The experiment in a line: affinity purification with mass spectrometry; Co-IP from fresh cell protein with antibody on protein A/G magnetic beads (antibody and beads at 4 °C overnight), IP buffer washes, eluted proteins analysed by mass spectrometry.

With SMARCC2 (from UniProt Q8TAQ2 1-1214), the binding entry was “binds”.
